The record followed here is article PMC11297269.

The chains behind the UniProt entries cited, without tags or fusion partners.
UniProt Q09666: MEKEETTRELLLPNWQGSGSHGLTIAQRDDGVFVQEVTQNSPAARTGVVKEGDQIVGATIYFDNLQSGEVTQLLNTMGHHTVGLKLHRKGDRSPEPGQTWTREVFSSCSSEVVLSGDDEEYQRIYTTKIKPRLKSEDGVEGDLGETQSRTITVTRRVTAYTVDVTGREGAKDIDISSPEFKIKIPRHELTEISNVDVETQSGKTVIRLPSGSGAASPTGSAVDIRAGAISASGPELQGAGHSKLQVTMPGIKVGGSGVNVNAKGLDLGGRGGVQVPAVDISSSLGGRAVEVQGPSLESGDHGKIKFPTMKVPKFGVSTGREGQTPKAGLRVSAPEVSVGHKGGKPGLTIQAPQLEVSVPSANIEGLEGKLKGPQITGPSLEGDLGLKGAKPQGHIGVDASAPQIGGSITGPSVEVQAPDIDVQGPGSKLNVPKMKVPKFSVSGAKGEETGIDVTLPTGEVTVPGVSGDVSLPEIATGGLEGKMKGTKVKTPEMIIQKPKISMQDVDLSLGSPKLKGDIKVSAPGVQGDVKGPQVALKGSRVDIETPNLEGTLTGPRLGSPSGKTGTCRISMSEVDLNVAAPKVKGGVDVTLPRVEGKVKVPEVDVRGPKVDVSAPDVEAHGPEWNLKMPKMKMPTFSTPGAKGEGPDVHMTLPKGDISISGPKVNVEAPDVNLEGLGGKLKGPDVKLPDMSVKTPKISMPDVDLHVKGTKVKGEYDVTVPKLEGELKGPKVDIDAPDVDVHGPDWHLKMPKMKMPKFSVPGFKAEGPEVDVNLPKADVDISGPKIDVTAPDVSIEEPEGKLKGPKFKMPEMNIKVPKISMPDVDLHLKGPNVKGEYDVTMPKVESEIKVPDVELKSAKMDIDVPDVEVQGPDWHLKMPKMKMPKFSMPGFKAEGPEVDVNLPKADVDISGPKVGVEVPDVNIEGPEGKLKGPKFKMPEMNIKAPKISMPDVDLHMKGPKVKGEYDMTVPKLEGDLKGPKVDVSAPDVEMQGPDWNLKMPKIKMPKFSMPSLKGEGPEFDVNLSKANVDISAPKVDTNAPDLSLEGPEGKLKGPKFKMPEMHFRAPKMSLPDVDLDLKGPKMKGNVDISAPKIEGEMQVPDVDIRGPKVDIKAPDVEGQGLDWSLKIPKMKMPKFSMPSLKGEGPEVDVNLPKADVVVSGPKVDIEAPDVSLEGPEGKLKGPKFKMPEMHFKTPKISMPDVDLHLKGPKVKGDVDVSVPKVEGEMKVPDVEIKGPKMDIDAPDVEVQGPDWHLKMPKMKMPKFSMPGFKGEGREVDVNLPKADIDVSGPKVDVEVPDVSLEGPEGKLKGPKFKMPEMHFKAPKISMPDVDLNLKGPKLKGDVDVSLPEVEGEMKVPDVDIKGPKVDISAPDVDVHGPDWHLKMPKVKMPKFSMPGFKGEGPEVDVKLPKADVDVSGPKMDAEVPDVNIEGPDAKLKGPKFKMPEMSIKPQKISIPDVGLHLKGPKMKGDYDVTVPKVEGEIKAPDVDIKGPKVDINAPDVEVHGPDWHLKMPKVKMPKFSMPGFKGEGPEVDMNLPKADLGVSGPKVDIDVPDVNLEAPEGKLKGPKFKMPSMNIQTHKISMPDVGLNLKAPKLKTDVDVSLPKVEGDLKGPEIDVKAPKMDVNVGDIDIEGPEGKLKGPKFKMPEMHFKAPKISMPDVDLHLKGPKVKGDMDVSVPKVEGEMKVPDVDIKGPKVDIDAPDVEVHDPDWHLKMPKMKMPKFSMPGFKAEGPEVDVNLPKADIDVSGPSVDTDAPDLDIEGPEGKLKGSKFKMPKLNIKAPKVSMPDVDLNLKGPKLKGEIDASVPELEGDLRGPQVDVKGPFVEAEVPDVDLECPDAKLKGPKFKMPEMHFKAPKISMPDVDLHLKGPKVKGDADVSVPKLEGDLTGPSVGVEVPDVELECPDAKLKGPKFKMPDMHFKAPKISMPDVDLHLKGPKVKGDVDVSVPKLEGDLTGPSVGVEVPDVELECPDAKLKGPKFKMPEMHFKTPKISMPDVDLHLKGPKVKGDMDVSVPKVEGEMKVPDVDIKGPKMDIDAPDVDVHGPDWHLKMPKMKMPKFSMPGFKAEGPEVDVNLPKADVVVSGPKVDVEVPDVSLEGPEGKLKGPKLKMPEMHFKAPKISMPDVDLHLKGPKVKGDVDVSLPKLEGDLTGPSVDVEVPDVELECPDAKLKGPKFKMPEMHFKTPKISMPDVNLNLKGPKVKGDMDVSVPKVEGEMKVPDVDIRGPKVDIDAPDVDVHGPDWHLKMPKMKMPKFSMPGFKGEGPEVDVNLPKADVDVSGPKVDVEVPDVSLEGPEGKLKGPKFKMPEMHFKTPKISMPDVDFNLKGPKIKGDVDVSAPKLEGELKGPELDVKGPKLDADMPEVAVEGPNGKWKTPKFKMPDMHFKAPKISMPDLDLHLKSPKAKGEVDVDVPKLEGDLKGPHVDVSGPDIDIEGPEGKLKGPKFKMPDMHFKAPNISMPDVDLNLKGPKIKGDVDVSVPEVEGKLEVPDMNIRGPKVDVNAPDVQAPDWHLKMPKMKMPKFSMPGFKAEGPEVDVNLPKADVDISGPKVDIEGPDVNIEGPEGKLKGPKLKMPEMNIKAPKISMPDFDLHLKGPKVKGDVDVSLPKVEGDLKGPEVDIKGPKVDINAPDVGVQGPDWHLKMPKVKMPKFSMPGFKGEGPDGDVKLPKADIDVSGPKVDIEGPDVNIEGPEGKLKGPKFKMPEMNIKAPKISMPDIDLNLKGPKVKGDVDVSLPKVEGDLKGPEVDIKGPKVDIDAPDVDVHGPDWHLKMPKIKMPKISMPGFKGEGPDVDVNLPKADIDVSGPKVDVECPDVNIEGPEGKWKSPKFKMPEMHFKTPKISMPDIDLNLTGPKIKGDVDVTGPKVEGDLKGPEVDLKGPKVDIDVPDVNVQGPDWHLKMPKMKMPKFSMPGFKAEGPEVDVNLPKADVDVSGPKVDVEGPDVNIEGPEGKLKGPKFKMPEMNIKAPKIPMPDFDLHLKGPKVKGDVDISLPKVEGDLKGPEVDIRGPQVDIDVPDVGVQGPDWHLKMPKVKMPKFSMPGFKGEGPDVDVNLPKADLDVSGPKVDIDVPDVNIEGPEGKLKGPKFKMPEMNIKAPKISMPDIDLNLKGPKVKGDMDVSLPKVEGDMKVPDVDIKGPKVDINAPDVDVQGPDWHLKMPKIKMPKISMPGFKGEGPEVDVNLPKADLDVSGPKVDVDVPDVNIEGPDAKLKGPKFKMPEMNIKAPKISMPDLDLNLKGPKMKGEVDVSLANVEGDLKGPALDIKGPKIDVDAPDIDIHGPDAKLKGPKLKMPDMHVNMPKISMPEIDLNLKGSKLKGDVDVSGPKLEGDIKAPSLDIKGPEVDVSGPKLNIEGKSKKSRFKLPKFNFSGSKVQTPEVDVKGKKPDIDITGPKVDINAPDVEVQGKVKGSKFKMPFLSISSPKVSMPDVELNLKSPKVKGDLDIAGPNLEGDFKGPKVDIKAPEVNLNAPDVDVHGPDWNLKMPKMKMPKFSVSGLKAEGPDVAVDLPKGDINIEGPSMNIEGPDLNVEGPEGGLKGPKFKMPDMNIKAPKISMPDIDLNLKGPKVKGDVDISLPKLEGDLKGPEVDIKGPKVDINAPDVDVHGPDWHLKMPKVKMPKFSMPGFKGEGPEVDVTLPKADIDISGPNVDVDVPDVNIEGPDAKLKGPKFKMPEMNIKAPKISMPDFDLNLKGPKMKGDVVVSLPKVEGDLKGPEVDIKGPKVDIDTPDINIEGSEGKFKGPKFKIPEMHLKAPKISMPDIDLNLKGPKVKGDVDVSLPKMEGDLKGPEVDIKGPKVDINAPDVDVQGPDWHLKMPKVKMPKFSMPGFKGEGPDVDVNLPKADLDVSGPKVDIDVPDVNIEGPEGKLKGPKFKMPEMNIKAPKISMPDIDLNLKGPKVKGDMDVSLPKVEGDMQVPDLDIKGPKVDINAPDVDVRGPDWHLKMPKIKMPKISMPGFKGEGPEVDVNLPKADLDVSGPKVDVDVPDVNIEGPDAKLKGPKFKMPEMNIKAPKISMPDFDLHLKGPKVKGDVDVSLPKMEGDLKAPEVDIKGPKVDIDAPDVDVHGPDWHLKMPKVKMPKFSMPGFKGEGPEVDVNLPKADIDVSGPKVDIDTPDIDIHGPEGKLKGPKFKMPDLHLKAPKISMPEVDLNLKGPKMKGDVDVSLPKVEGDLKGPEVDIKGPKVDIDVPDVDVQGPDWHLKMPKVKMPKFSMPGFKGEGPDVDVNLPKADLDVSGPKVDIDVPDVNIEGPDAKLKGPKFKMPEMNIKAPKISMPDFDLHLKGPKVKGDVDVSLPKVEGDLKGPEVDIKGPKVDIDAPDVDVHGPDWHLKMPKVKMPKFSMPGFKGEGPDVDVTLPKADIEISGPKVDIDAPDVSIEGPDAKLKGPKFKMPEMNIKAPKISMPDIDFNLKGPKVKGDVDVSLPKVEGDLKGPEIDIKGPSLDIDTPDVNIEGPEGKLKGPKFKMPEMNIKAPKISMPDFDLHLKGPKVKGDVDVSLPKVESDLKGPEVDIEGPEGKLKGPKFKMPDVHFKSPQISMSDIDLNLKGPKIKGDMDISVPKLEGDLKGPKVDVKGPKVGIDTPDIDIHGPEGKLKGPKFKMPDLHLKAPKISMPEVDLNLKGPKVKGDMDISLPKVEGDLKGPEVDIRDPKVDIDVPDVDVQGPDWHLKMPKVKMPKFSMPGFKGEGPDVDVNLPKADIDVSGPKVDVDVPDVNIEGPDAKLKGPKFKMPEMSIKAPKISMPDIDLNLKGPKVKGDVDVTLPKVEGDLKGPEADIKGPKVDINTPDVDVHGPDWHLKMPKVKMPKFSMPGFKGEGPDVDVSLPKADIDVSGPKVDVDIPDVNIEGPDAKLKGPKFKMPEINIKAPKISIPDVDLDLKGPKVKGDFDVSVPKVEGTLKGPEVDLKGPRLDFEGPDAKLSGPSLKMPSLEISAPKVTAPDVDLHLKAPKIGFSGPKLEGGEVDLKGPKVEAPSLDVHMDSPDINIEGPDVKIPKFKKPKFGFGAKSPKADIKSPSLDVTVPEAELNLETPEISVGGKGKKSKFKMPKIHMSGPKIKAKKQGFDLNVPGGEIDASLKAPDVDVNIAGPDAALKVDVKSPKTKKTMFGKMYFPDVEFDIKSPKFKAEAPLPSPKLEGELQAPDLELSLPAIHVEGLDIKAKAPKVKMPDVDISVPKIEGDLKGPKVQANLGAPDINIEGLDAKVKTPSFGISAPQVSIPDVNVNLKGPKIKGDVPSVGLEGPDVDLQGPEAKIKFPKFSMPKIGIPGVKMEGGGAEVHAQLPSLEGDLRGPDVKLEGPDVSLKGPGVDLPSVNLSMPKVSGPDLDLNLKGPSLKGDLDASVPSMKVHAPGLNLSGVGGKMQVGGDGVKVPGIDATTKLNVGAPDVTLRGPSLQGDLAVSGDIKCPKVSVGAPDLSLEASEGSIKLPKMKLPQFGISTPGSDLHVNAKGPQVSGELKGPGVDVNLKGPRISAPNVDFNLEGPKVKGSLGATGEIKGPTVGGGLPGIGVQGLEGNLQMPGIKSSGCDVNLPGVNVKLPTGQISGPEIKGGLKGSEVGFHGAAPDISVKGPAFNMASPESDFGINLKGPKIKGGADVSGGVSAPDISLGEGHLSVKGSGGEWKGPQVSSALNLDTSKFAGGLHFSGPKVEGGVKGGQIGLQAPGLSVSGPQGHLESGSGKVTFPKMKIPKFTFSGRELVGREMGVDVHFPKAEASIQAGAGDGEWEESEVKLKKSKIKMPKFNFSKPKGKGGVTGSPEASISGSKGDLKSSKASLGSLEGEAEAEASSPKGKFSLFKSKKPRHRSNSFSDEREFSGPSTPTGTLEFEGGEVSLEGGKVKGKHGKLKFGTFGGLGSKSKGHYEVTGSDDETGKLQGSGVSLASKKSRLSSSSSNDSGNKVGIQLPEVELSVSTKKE
UniProt Q05655: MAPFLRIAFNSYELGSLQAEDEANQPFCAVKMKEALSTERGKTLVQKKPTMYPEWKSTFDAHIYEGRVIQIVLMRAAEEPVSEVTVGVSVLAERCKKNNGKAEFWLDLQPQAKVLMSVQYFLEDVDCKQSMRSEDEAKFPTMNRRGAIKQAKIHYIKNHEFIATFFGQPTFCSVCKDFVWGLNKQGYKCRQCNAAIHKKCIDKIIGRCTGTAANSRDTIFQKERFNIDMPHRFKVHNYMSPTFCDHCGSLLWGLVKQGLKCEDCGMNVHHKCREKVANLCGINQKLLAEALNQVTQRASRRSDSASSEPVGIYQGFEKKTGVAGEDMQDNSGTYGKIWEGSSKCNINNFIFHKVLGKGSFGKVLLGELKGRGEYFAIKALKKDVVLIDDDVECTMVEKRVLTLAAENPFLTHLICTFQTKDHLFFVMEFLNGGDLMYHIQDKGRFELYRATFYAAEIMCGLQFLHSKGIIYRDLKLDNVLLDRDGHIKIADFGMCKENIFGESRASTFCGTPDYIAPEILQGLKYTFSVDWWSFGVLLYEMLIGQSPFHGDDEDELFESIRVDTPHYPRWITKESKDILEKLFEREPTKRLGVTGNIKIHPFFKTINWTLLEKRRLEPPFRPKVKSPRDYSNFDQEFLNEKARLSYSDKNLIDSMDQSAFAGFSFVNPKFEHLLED

Results are given in words; binding and its absence hold for the method and conditions named. In cells and extracts the contact can be indirect. A yes stands for co-enrichment or nearness to the bait. Other partners may have been found.

Assay [1] deals with APEX2-fused 5HT2A serotonin receptor (UniProt P28223). Nature of the assay: proximity labelling; low-input pipeline: 5HT2A-APEX2 HEK293T cells in 6-well plates, non-targeting control and CRISPR knockout (ANXA2, S100A10) cells; 0.1 µM 5HT for 0, 1 and 30 min; automated streptavidin enrichment, DIA-MS.
Assay [2] shares this target. Nature of the assay: proximity labelling; high-input pipeline: APEX2 fused to 5HT2A in live HEK293T cells (10 cm dish); 0.1 µM 5HT for 0, 1, 5, 10 and 30 min; 500 µM biotin phenol 30 min, H2O2 45 sec; automated streptavidin enrichment, DIA-MS; hits: adjusted p-value < 0.05 over the time course and FC > 1.5.

Consider AHNAK (from UniProt Q09666 1-5890), for which, in assay [1], the binding entry is on record as “binds”.
Turning to S100-A10 (from UniProt P60903 1-97), the binding result in assay [2] and in assay [1] was “binds” in each case.
In the case of “diacylglycerol kinase zeta (from UniProt Q13574 1-928) (enzyme)”, the binding result in assay [2] is listed as “binds”.
Take Epsin-1 (from UniProt Q9Y6I3 1-576): the binding result in assay [2] is “binds”.
For “protein kinase C isoform PKCD (from UniProt Q05655 1-676) (enzyme)”, the binding result in assay [2] is “binds”.
Annexin A2 (from UniProt P07355 1-339): the binding entry in assay [2] and in assay [1] was “binds” in each case.
In the case of “BMP-2 inducible kinase (from UniProt Q9NSY1 1-1161) (enzyme)”, the binding entry in assay [2] is “binds”.
The same measure, in the same setting: next, “protein kinase C isoform PKCA (from UniProt P17252 1-672) (enzyme)”: “binds”.
In the case of “protein kinase C isoform PKCQ (from UniProt Q04759 1-706) (enzyme)”, the binding result in assay [2] was “binds”.
Take “G protein-coupled receptor kinase 2 (from UniProt P25098 1-689) (enzyme)”: the binding entry in assay [2] was “binds”.

B1: mannose 6-phosphate receptor (receptor, UniProt P20645 27-277)
chain: TEEKTCDLVGEKGKESEKELALVKRLKPLFNKSFESTVGQGSDTYIYIFRVCREAGNHTSGAGLVQINKSNGKETVVGRLNETHIFNGSNWIMLIYKGGDEYDNHCGKEQRRAVVMISCNRHTLADNFNPVSEERGKVQDCFYLFEMDSSLACSPEISHLSVGSILLVTFASLVAVYVVGGFLYQRLVVGAKGMEQFPHLAFWQDLGNLVADGCDFVCRSKPRNVPAAYRGVGDDQLGEESEERDDHLLPM
For B1, in assay [2], the binding result is recorded as “binds”.

B2: protein kinase D (PRKD2) (enzyme, UniProt Q9BZL6 1-878)
chain: MATAPSYPAGLPGSPGPGSPPPPGGLELQSPPPLLPQIPAPGSGVSFHIQIGLTREFVLLPAASELAHVKQLACSIVDQKFPECGFYGLYDKILLFKHDPTSANLLQLVRSSGDIQEGDLVEVVLSASATFEDFQIRPHALTVHSYRAPAFCDHCGEMLFGLVRQGLKCDGCGLNYHKRCAFSIPNNCSGARKRRLSSTSLASGHSVRLGTSESLPCTAEELSRSTTELLPRRPPSSSSSSSASSYTGRPIELDKMLLSKVKVPHTFLIHSYTRPTVCQACKKLLKGLFRQGLQCKDCKFNCHKRCATRVPNDCLGEALINGDVPMEEATDFSEADKSALMDESEDSGVIPGSHSENALHASEEEEGEGGKAQSSLGYIPLMRVVQSVRHTTRKSSTTLREGWVVHYSNKDTLRKRHYWRLDCKCITLFQNNTTNRYYKEIPLSEILTVESAQNFSLVPPGTNPHCFEIVTANATYFVGEMPGGTPGGPSGQGAEAARGWETAIRQALMPVILQDAPSAPGHAPHRQASLSISVSNSQIQENVDIATVYQIFPDEVLGSGQFGVVYGGKHRKTGRDVAVKVIDKLRFPTKQESQLRNEVAILQSLRHPGIVNLECMFETPEKVFVVMEKLHGDMLEMILSSEKGRLPERLTKFLITQILVALRHLHFKNIVHCDLKPENVLLASADPFPQVKLCDFGFARIIGEKSFRRSVVGTPAYLAPEVLLNQGYNRSLDMWSVGVIMYVSLSGTFPFNEDEDINDQIQNAAFMYPASPWSHISAGAIDLINNLLQVKMRKRYSVDKSLSHPWLQEYQTWLDLRELEGKMGERYITHESDDARWEQFAAEHPLPGSGLPTDRDLGGACPPQDHDMQGLAERISVL
For B2, in assay [2], the binding entry was “binds”.

B3: Epsin-2 (protein, UniProt O95208 1-641)
chain: MTTSSIRRQMKNIVNNYSEAEIKVREATSNDPWGPSSSLMTEIADLTYNVVAFSEIMSMVWKRLNDHGKNWRHVYKALTLLDYLIKTGSERVAQQCRENIFAIQTLKDFQYIDRDGKDQGINVREKSKQLVALLKDEERLKAERAQALKTKERMAQVATGMGSNQITFGRGSSQPNLSTSHSEQEYGKAGGSPASYHGSPEASLCPQHRTGAPLGQSEELQPLSQRHPFLPHLGLASRPNGDWSQPCLTCDRAARATSPRVSSELEQARPQTSGEEELQLQLALAMSREVAEQEERLRRGDDLRLQMALEESRRDTVKIPKKKEHGSLPQQTTLLDLMDALPSSGPAAQKAEPWGPSASTNQTNPWGGPAAPASTSDPWPSFGTKPAASIDPWGVPTGATVQSVPKNSDPWAASQQPASSAGKRASDAWGAVSTTKPVSVSGSFELFSNLNGTIKDDFSEFDNLRTSKKTAESVTSLPSQNNGTTSPDPFESQPLTVASSKPSSARKTPESFLGPNAALVNLDSLVTRPAPPAQSLNPFLAPGAPATSAPVNPFQVNQPQPLTLNQLRGSPVLGTSTSFGPGPGVESMAVASMTSAAPQPALGATGSSLTPLGPAMMNMVGSVGIPPSAAQATGTTNPFLL
For B3, the binding entry in assay [2] is recorded as “binds”.
